This is one part of the list. Shown are side measurements of this screen, not its main read-out; they come without a call. Most of these compounds were active or inconclusive in the main read-out, so they are no random draw. The note in brackets gives the kind of curve behind each potency; many fits are weak.
Assay: Cell signaling CRE-BLA (Fsk stim)
Settings: CHO CRE-bla reporter (cAMP response element driving beta-lactamase), forskolin EC10, beta-lactamase ratio; measured here: 460 nm blue channel
Procedure, shortened: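 The 460nm/530nm emission ratio after CCF4 loading defined %Activity, from which AC50 values were obtained. CRE-bla CHO cells received compound dilution series together with an EC10 level of NKH 477 for 3 hours at 37 degrees Celsius.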

SMILES | AC50
COc1ccc(S(=O)(=O)N(CC(=O)Nc2ccc3c(c2)OCO3)c2ccccc2OC)cc1 | 25.1 µM [falling, single point]
CCOc1ccc(-c2[nH]nc3c2C(c2ccc4c(c2)OCO4)C(C#N)=C(N)O3)cc1OC (centres undefined) | 0.794 µM [rising, full curve]
Cc1cccnc1-n1c(CCN2C(=O)c3ccccc3C2=O)nc2ccccc2c1=O | 12.6 µM [rising, single point]
O=C(C1CCC1)N1CCc2cc(S(=O)(=O)NC3CCCC3)ccc21 | 10 µM [rising, single point]
Cc1nn(C)cc1CNC(=O)c1cnn2c(C(F)F)cc(C3CC3)nc12 | 7.94 µM [rising, partial curve]
CCC1(C)Cc2c(sc3nc4n(c(=O)c23)CCCS4)CO1 (centres undefined) | 0.00631 µM [falling, full curve, poor fit]
COc1ccccc1N1CCN(C(=O)CSc2ccc3c(C)cc(C)nc3n2)CC1 | 15.8 µM [rising, single point]
COCCn1c(=O)cnc2cnc(Nc3ccccc3)nc21 | 2.51 µM [falling, full curve]
Nc1ccccc1NC(=O)c1ccccc1 | 0.316 µM [rising, partial curve]
Cn1c(=N)c(S(=O)(=O)c2ccccc2)cc2c(=O)n3ccccc3nc21 | 2.51 µM [rising, full curve]
Cc1c(CN2CCCCC2C)c(=O)n(-c2ccccc2)n1C (centres undefined) | 0.00794 µM [falling, full curve, poor fit]
COc1cc(COc2cc(N)c(Cl)cc2C(=O)CCC2CCN(CCNS(C)(=O)=O)CC2)cc(OC)c1 | 7.94 µM [rising, partial curve]
NC1(C(=O)O)C[C@@H](C(=O)O)[C@H](C(=O)O)C1 | 12.6 µM [falling, single point]
CC(C)[C@H](CO)Nc1nc(Nc2ccc(C(=O)O)c(Cl)c2)c2ncn(C(C)C)c2n1 | 31.6 µM [falling, single point]
Cc1ccc(-c2cc(C(F)F)nc(NCc3cccnc3)n2)cc1 | 0.631 µM [rising, full curve]
N#C[C@H](Cc1ccc(O)cc1)c1ccc(O)cc1 | 15.8 µM [falling, partial curve, poor fit]
Cc1c(C(=O)NC2CC2)oc2ccc(S(=O)(=O)N3CCCCCC3)cc12 | 10 µM [rising, partial curve]
COc1cc(-c2nnc(SCC(=O)c3ccc(C)cc3)o2)cc(OC)c1OC | 2 µM [rising, full curve]
CCN1CCN(CCCNC(=O)C(NC(=O)C2CCC(C)CC2)C(C)C)CC1 (centres undefined) | 0.00398 µM [falling, full curve, poor fit]
CCC(C)NC(=O)c1cnc2n(c1=O)CCS2 (centres undefined) | 12.6 µM [rising, single point]
O=C(NCc1ccco1)C1CCN(C(=O)c2cc3sccc3n2Cc2ccc(F)cc2)CC1 | 25.1 µM [rising, single point]
COc1cccc(Cn2c(=O)c(C)nc3cnc(Nc4ccccc4)nc32)c1 | 10 µM [rising, partial curve]
O=C(NCc1ccncc1)c1ccc(Br)o1 | 1 µM [falling, partial curve]

SMILES | AC50
COc1ccc(-n2c(SC3CCOC3=O)nc3ccccc32)cc1 (centres undefined) | 5.01 µM [rising, partial curve]
CN(Cc1ccccc1)c1ncnc2c1cnn2-c1ccccc1 | 5.01 µM [rising, partial curve]
CCOC(=O)N1CCN(C(=O)Cc2ccsc2)CC1 | 5.01 µM [falling, partial curve]
O=C(COC(=O)CCC(=O)c1cccs1)NCc1ccco1 | 3.16 µM [falling, partial curve]
O=C(CCCCn1c(=O)[nH]c2ccsc2c1=O)NCC1CCCO1 (centres undefined) | 0.631 µM [falling, single point]
CC(C)(C)c1ccccc1NC(=O)c1cccnc1 | 25.1 µM [rising, single point]
COc1ccccc1-c1nnc2sc(-c3cc4ccccc4o3)nn12 | 1.58 µM [rising, full curve]
O=C(C1CCCCC1)N1CCC(c2nc3c(nnn3Cc3ccccc3Cl)c(=O)[nH]2)CC1 | 12.6 µM [rising, partial curve]
CCCCOC(=O)C(C#N)c1nc2ccccc2nc1N1CCOCC1 (centres undefined) | 2.51 µM [rising, full curve]
CCn1c(=O)c(C)nn2c3ccccc3nc12 | 15.8 µM [rising, single point]
CCOC(=O)CSc1nnc([C@@H](NC(=O)OC(C)(C)C)C(C)C)o1 | 3.16 µM [falling, single point]
CN(C)C(=O)c1ccc(-c2nc(N3CCOCC3)c3ccccc3n2)cc1 | 7.94 µM [rising, partial curve]
O=S(=O)(NC1CCCCC1)c1ccc(Br)cc1 | 0.00316 µM [falling, full curve, poor fit]
CCOc1cc2c(cc1OCC)C(c1ccc(O)c(OC)c1)NCC2 (centres undefined) | 10 µM [rising, single point]
CCc1nc(N2CCCC(C)C2)c2oc3ccccc3c2n1 (centres undefined) | 10 µM [rising, partial curve]
Oc1c(C(c2cccs2)N2CCOCC2)sc2ncnn12 (centres undefined) | 10 µM [rising, partial curve]
Cc1cc(=O)oc2c(CN(C)Cc3ccccc3)c(O)ccc12 | 10 µM [rising, single point]
CCCCNc1cc(C)nc(NCc2ccccc2)n1 | 0.0158 µM [falling, full curve, poor fit]
CCC1(c2ccc(F)cc2)NC(=O)N(CC(=O)c2ccc[nH]2)C1=O (centres undefined) | 1 µM [falling, single point]
CCOc1ccc(C2c3c(oc4ccccc4c3=O)C(=O)N2c2ccc(C)cn2)cc1OC (centres undefined) | 1.26 µM [rising, full curve]
CCC1CCCCN1Cc1nc2c(c(=O)n(C)c(=O)n2C)n1Cc1ccccc1 (centres undefined) | 5.01 µM [rising, partial curve]
Cc1ccccc1-c1nc(Nc2ccncc2)c2ccccc2n1 | 3.16 µM [rising, full curve]
CCNc1ncc2ncc(=O)n(C)c2n1 | 12.6 µM [rising, single point]

Looked up by compound from the entries so far:
SMILES | AC50
CCOc1cc2c(cc1OCC)C(c1ccc(O)c(OC)c1)NCC2 (centres undefined) | 10 µM [rising, single point]
Cc1cccnc1-n1c(CCN2C(=O)c3ccccc3C2=O)nc2ccccc2c1=O | 12.6 µM [rising, single point]

Looked up above:
O=C(COC(=O)CCC(=O)c1cccs1)NCc1ccco1 | AC50: 3.16 µM [falling, partial curve]
O=C(C1CCCCC1)N1CCC(c2nc3c(nnn3Cc3ccccc3Cl)c(=O)[nH]2)CC1 | AC50: 12.6 µM [rising, partial curve]

(list continues)

SMILES | AC50
Nc1cc(Cl)c(NC2=NCCN2)c(Cl)c1 | 31.6 µM [rising, single point]
O=C(NCCCN1CCCCC1)c1ccc2c(c1)NC(=O)C(N1CCCCC1)S2 (centres undefined) | 0.0794 µM [rising, single point]
CCOC(=O)c1c2c(n3ccccc13)C(=O)c1ccccc1C2=O | 5.01 µM [rising, single point]
CC(C)c1ccc(-c2noc(C3CCCN(C(=O)c4ccc(F)cc4F)C3)n2)cc1 (centres undefined) | 0.316 µM [falling, full curve, poor fit]
CCCCOC(=O)n1c(SCC(=O)N(C)C)nc2ccccc21 | 12.6 µM [rising, single point]
CC(C)COC(=O)C1C(=O)CC(C)(O)C(C(=O)OCC(C)C)C1c1cccnc1 (centres undefined) | 0.398 µM [falling, partial curve]
CC(C)N1CC(C(=O)Nc2nc3ccccc3s2)CC1=O (centres undefined) | 25.1 µM [rising, single point]
O=c1[nH]c(CSc2nnc(NCCCN3CCOCC3)s2)nc2cc(Cl)ccc12 | 5.01 µM [falling, single point]
CCc1nnc(NC(=O)CN2CCC(O)(c3ccccc3OC)CC2)s1 | 0.126 µM [falling, partial curve, poor fit]
Cc1cc(S(=O)(=O)N2CCOCC2)ccc1F | 25.1 µM [falling, single point]
Cc1cc2c(c(=O)n1Cc1ccc3c(c1)OCO3)C(c1cccnc1)C(C#N)=C(N)O2 (centres undefined) | 20 µM [rising, single point]
COc1cc(OC)cc(C(=O)N2CCC(n3c(C)nc4cc(F)ccc43)CC2)c1 | 15.8 µM [rising, partial curve]
CCN1CCN(c2nc3c(c(=O)n(C)c(=O)n3C)n2Cc2cccc3ccccc23)CC1 | 3.98 µM [rising, single point]
CCCn1c(CN(C)Cc2ccccc2)nc2c1c(=O)n(C)c(=O)n2C | 12.6 µM [rising, partial curve]
CCn1c2ccccc2c2nc3ccccc3nc21 | 1.58 µM [rising, full curve]
CC(OC(=O)CNC(=O)c1ccc2c(c1)OCO2)C(=O)NCCC1=CCCCC1 (centres undefined) | 25.1 µM [falling, single point]
Cc1cc(N2CCN(c3ccccc3)CC2)n2nnnc2n1 | 25.1 µM [rising, single point]
CCOC(=O)c1c(-c2ccccc2)nnn1-c1nc(OCC)nc(N2CCCCC2)n1 | 0.00398 µM [falling, full curve, poor fit]
Cc1cc(S(=O)(=O)Nc2c(C(=O)O)[nH]c3ccccc23)ccc1F | 6.31 µM [falling, partial curve]
COc1ccc(C2C(C(C)=O)=C(C)N=c3s/c(=C\c4ccco4)c(=O)n32)c(OC)c1 (centres undefined) | 12.6 µM [rising, partial curve]
CN/C=C1\C(=O)C(C)(C)Oc2ccc3ccc(=O)oc3c21 | 10 µM [rising, partial curve]
Cn1c(=O)c(-c2ccccc2)nc2cnc(N3CCOCC3)nc21 | 12.6 µM [rising, partial curve]
Cn1c(=O)c2nc(NCc3ccccc3)cnc2n(C)c1=O | 10 µM [rising, partial curve]
